Test results published in PubChem BioAssay AID200 (DTP/NCI, 2004).
The list does not hold the whole screen: it gathers tests that were run many times, whatever their T/C, doses with no T/C, and many T/C values between a quarter and a half above the control. Other doses and runs of a compound stand elsewhere. T/C gives the treated animals as a percentage of the vehicle group. Some doses have a count of surviving animals in place of a T/C: the source files T/C as zero there, which appears to mark a toxic dose or a test without result, not a measured value. Some survivor counts are full or nearly so, which does not show that the dose was tolerated: survival well below the control is almost never listed, so the zero probably covers shortened survival too. Survivors were counted at the toxicity check, usually on the fifth day, unless a day is given; later deaths do not show. Schedules are NCI's codes, taken here to give the interval after Q, in days (D) or hours (H), and the number of doses after X. Some entries hold several experiments; the results are listed from low to high. Where survival is the endpoint, the PubChem record calls one and a half times the control and up active, and a quarter to a half above the control has no call in these data; cut-offs in other NCI protocols can differ. Signs of the kind (2×) say how often a value occurs here. Some T/C values carry the count of animals alive at the toxicity check (mostly the fifth day); without a count, all were alive then. Where a SMILES comes first, the peptide text is derived from it. The star is where a group is joined. Cbz = O=C(OCc1ccccc1)*; Bn = c1ccc(C*)cc1

System: B6C3F1 mice, B16 melanoma ip, median survival T/C
Test: NCI In Vivo Anticancer Drug Screen. Data for tumor model B16 Melanoma (intraperitoneal) in B6C3F1 mice
Conditions: T/C endpoint: median survival time, higher T/C = longer survival
Method in brief: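 Readout: survival or tumor size in treated mice relative to vehicle controls (T/C). Model uses transplantable tumors grown in mice.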

[1] = dose: 200.0 mg/kg/injection, schedule: Q01DX009 (ip), vehicle: water
[2] = dose: 400.0 mg/kg/injection, schedule: Q01DX009 (ip), vehicle: water
[3] = dose: 100.0 mg/kg/injection, schedule: Q01DX009 (ip), vehicle: saline with Tween-80
[4] = dose: 400.0 mg/kg/injection, schedule: Q01DX009 (ip), vehicle: saline with Tween-80
[5] = dose: 200.0 mg/kg/injection, schedule: Q01DX009 (ip), vehicle: Klucel (hydroxypropylcellulose) (HPC)
[6] = dose: 50.0 mg/kg/injection, schedule: Q01DX009 (ip), vehicle: saline with Tween-80
[7] = dose: 6.25 mg/kg/injection, schedule: Q01DX009 (ip), vehicle: Klucel (hydroxypropylcellulose) (HPC)
[8] = dose: 200.0 mg/kg/injection, schedule: Q01DX009 (ip), vehicle: saline with Tween-80

`O=C(NO)c1ccc(O)c(O)c1` was tested, and the T/C [1] was 125 % of control, the T/C (dose: 240.0 mg/kg/injection, schedule: Q01DX009 (ip), vehicle: water) was 136 % of control and the T/C (dose: 264.0 mg/kg/injection, schedule: Q01DX009 (ip), vehicle: other) was 129 % of control. For the same compound, the survivor count (dose: 264.0 mg/kg/injection, schedule: Q01DX009 (ip), vehicle: water) was 10 of 10, the T/C (dose: 400.0 mg/kg/injection, schedule: Q01DX009 (ip), vehicle: other) was 141 % of control and the T/C [2] was 102 [8 of 10 alive], 112, 117, 125 % of control. The T/C (dose: 480.0 mg/kg/injection, schedule: Q01DX009 (ip), vehicle: water) was 136 % of control, the survivor count (dose: 600.0 mg/kg/injection, schedule: Q01DX009 (ip), vehicle: water) was 4 of 10 and the survivor count (dose: 720.0 mg/kg/injection, schedule: Q01DX009 (ip), vehicle: water) was 7 of 10. The survivor count (dose: 800.0 mg/kg/injection, schedule: Q01DX009 (ip), vehicle: water) was 0 of 10 and 2 of 10.

For `Nc1ccc(S(=O)(=O)Nc2cnc3c(Cl)cccc3n2)cc1`, the survivor count (dose: 800.0 mg/kg/injection, schedule: Q01DX009 (ip), vehicle: DMSO) was 1 of 10.

In the case of `CCCCCCCCCCCCSC1=C(Cl)C(=O)C(OC)=C(OC)C1=O`, the survivor count [3] is reported as 2 of 10.

For `CN1CCN(Cc2nc3cccc4c3c([n+]2[O-])-c2ccccc2-4)CC1`, the survivor count [4] was 0 of 10.

`OC1CCCC2CCC[N-]C12.OC1CCCC2CCC[N-]C12.[Mn+2]` (configuration not stated) was tested, and the survivor count (dose: 100.0 mg/kg/injection, schedule: Q01DX009 (ip), vehicle: Klucel (hydroxypropylcellulose) (HPC)) was 10 of 10 and the survivor count [5] was 1 of 10.

In the case of `CO[C@@H]1[C@H](O)CC[C@]2(CO2)[C@H]1[C@@]1(C)O[C@@H]1CC=C(C)C`, the T/C (dose: 6.25 mg/kg/injection, schedule: Q01DX009 (ip), vehicle: saline with Tween-80, evaluated on day 45) is reported as 106 % of control, the T/C (dose: 6.25 mg/kg/injection, schedule: Q01DX009 (ip), vehicle: saline with Tween-80, evaluated on day 60) is reported as 104, 108, 110 % of control [9 of 10 alive] and the T/C (dose: 12.5 mg/kg/injection, schedule: Q01DX009 (ip), vehicle: saline with Tween-80, evaluated on day 45) is reported as 106 % of control. For the same compound, the T/C (dose: 12.5 mg/kg/injection, schedule: Q01DX009 (ip), vehicle: saline with Tween-80, evaluated on day 60) was 101, 107, 109 % of control, the T/C (dose: 12.5 mg/kg/injection, schedule: Q01DX009 (ip), vehicle: saline) was 131 % of control and the T/C (dose: 25.0 mg/kg/injection, schedule: Q01DX009 (ip), vehicle: saline with Tween-80, evaluated on day 45) was 100 % of control. The T/C (dose: 25.0 mg/kg/injection, schedule: Q01DX009 (ip), vehicle: saline with Tween-80, evaluated on day 60) was 103, 106, 115 % of control, the T/C (dose: 25.0 mg/kg/injection, schedule: Q01DX009 (ip), vehicle: saline) was 131 % of control and the T/C (dose: 50.0 mg/kg/injection, schedule: Q01DX009 (ip), vehicle: saline with Tween-80, evaluated on day 45) was 102 % of control [9 of 10 alive]. The T/C (dose: 50.0 mg/kg/injection, schedule: Q01DX009 (ip), vehicle: saline with Tween-80, evaluated on day 60) was 110 % of control (3×).

With `COc1ccc2c(c1OC(C)=O)-c1cc(O)cc3c1C(C2)N(C(=O)CN(CCCl)CCCl)CC3` (configuration not stated) the survivor count (dose: 25.0 mg/kg/injection, schedule: Q01DX009 (ip), vehicle: saline with Tween-80) was 10 of 10 and the survivor count [6] was 6 of 10.

For `CCCC[C@H]1C(=O)O[C@H](C)[C@H](NC(=O)c2cccc(NC=O)c2O)C(=O)O[C@@H](C)[C@@H]1OC(=O)CC(C)C`, the survivor count (dose: 1.0 mg/kg/injection, schedule: Q01DX009 (ip), vehicle: Klucel (hydroxypropylcellulose) (HPC)) was 7 of 10 and 9 of 10, the survivor count (dose: 2.0 mg/kg/injection, schedule: Q01DX009 (ip), vehicle: Klucel (hydroxypropylcellulose) (HPC)) was 0 of 10 and 9 of 10 and the survivor count (dose: 4.0 mg/kg/injection, schedule: Q01DX009 (ip), vehicle: Klucel (hydroxypropylcellulose) (HPC)) was 10 of 10.

`C=C1C(=O)C23[C@H](O)C1CC[C@H]2[C@]12COC3(O)[C@@H](O)[C@@H]1C(C)(C)CC[C@@H]2O` was tested, and the survivor count (dose: 36.0 mg/kg/injection, schedule: Q01DX009 (ip), vehicle: Klucel (hydroxypropylcellulose) (HPC)) was 10 of 10 and the survivor count [6] was 1 of 10.

For `COc1c(C=O)c2c(c(OC)c1OC)-c1ccc(OC)c(=O)cc1[C@@H](NC(C)=O)CC2`, the T/C (dose: 3.12 mg/kg/injection, schedule: Q01DX009 (ip), vehicle: Klucel (hydroxypropylcellulose) (HPC)) was 132 % of control, the T/C [7] was 126 % of control and the survivor count [7] was 8 of 10. The survivor count (dose: 12.5 mg/kg/injection, schedule: Q01DX009 (ip), vehicle: Klucel (hydroxypropylcellulose) (HPC)) was 6 of 10 and the survivor count (dose: 25.0 mg/kg/injection, schedule: Q01DX009 (ip), vehicle: Klucel (hydroxypropylcellulose) (HPC)) was 3 of 10 and 5 of 10.

For `CCC(=O)[O-].CCC(=O)[O-].CCC(=O)[O-].CCC(=O)[O-].O=S(=O)(O)O.[Re].[Re]`, the survivor count (dose: 180.0 mg/kg/injection, schedule: Q01DX009 (ip), vehicle: suspension in saline) was 10 of 10.

`COc1ccc(-c2cc(=O)c3ccc4c(O)cccc4c3o2)cc1` was tested, and the survivor count (dose: 12.5 mg/kg/injection, schedule: Q01DX009 (ip), vehicle: saline with Tween-80) was 9 of 10, the survivor count [6] was 10 of 10 and the survivor count [3] was 10 of 10. For the same compound, the survivor count [8] was 9 of 10 and the survivor count [4] was 10 of 10.

`CCCCCCCCCCCCCCCCS(=O)CC(O)COC(=O)c1ccc(C(=O)OCC(O)CS(=O)CCCCCCCCCCCCCCCC)cc1` (configuration not stated) was tested, and the survivor count (dose: 100.0 mg/kg/injection, schedule: Q01DX009 (ip), vehicle: saline + alcohol) was 10 of 10, the survivor count (dose: 200.0 mg/kg/injection, schedule: Q01DX009 (ip), vehicle: saline + alcohol) was 10 of 10 and the survivor count (dose: 400.0 mg/kg/injection, schedule: Q01DX009 (ip), vehicle: saline + alcohol) was 10 of 10.

With `CCCCC(CC)(CC(=N)C(C)(C)C)c1ccccc1` (configuration not stated) the survivor count (dose: 100.0 mg/kg/injection, schedule: Q01DX009 (ip), vehicle: saline + Tween-80 + alcohol) was 10 of 10 and the survivor count (dose: 200.0 mg/kg/injection, schedule: Q01DX009 (ip), vehicle: saline + Tween-80 + alcohol) was 10 of 10.

For `Cc1cc(=NO)cc(C)n1O`, the survivor count (dose: 200.0 mg/kg/injection, schedule: Q01DX009 (ip), vehicle: distilled water + alcohol) was 10 of 10.

`N#CC(C#N)=NNc1ccc2cn[nH]c2c1` was tested, and the survivor count [5] was 8 of 10.

With `CCCCCCC/C=C/C(=O)OC1C(OC2C(OC(CCCCCCC)CC(=O)OC(CCCCCCC)CC(=O)O)OC(C)C(O)C2O)OC(C)C(O)C1O` (configuration not stated) the survivor count [7] was 10 of 10.

With `CCOC(=O)c1[nH]c2cccc3c2c1CC(Br)C3=O` (configuration not stated) the survivor count [3] was 5 of 10, the survivor count [8] was 1 of 10 and the survivor count [4] was 0 of 10.

With `COc1cccc2c1C(=O)c1c(O)c3c(c(O)c1C2=O)C[C@@](O)(C(O)CO)C[C@@H]3OC1CC(N(Cc2ccccc2)Cc2ccccc2)C(O)C(C)O1` (some centres not stated) the T/C (dose: 12.5 mg/kg/injection, schedule: Q01DX001 (ip), vehicle: water) was 127 % of control, the T/C (dose: 25.0 mg/kg/injection, schedule: Q01DX001 (ip), vehicle: water) was 140 % of control and the T/C (dose: 25.0 mg/kg/injection, schedule: Q01DX009 (ip), vehicle: water) was 149 % of control. The survivor count (dose: 100.0 mg/kg/injection, schedule: Q01DX009 (ip), vehicle: water) was 9 of 10, the survivor count [1] was 9 of 10 and the survivor count [2] was 5 of 10.

For `CC(C)C(NC(=O)C(CSCc1ccccc1)NC(=O)OCc1ccccc1)C(=O)O` (configuration not stated) (Cbz-Cys(Bn)-Val-OH; configuration not given here), the survivor count (dose: 400.0 mg/kg/injection, schedule: Q01DX009 (ip), vehicle: Klucel (hydroxypropylcellulose) (HPC)) was 0 of 10.

In the case of `N#Cc1c(N)[nH]c2ccc(Sc3ccccc3)cc12`, the survivor count [3] is reported as 8 of 10.
